Reference: the supplement of paper PMC10849652
Some of the results follow.

By UniProt entry, the sequences of proteins in these tests, tags left out. Where a name states a change or a piece, a line headed by the entry shows the natural chain unless it says otherwise.
UniProt Q5VTL8: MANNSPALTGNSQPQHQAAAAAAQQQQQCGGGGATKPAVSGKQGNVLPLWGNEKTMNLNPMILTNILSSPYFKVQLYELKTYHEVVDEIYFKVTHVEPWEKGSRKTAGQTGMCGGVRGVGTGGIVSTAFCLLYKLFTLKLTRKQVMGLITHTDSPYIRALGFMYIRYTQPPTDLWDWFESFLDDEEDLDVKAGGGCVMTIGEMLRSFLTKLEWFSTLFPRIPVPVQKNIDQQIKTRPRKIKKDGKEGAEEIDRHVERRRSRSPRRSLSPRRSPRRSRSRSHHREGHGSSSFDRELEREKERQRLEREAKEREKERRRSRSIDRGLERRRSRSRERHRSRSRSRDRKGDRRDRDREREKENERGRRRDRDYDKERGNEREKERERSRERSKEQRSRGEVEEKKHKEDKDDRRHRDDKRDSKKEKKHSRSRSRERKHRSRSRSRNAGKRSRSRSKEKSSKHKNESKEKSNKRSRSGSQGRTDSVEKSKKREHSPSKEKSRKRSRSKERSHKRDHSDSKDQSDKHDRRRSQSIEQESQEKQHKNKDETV
UniProt Q15435: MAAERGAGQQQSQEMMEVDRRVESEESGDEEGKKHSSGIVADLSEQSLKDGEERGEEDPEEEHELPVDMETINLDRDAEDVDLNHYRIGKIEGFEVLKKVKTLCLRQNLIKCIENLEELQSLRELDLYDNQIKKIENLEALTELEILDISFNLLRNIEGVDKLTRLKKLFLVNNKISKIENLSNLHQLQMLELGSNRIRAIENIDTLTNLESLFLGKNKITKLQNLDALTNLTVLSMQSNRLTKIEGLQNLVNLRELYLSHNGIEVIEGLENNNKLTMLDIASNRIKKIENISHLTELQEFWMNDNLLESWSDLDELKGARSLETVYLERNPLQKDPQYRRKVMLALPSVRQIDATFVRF
UniProt Q13356: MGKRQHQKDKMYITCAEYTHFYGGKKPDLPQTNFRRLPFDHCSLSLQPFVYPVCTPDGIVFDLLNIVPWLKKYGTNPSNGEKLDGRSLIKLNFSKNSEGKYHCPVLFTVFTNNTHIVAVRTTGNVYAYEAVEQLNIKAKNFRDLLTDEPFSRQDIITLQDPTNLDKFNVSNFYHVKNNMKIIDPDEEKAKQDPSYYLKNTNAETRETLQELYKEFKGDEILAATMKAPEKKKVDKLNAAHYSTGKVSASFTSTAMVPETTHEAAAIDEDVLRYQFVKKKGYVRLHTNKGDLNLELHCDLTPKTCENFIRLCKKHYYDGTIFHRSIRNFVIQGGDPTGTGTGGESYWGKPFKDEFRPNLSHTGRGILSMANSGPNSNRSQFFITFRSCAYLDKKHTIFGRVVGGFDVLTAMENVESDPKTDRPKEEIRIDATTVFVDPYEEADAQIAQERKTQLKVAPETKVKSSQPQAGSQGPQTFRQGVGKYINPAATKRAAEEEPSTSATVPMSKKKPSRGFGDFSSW
UniProt Q8TAP8: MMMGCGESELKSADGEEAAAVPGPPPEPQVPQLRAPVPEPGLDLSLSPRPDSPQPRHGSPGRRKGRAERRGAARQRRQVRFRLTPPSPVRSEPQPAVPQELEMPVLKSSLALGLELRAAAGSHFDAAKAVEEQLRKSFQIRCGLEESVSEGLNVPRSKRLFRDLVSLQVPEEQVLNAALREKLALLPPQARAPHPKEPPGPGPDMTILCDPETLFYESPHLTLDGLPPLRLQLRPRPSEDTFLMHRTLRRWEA
UniProt O60828: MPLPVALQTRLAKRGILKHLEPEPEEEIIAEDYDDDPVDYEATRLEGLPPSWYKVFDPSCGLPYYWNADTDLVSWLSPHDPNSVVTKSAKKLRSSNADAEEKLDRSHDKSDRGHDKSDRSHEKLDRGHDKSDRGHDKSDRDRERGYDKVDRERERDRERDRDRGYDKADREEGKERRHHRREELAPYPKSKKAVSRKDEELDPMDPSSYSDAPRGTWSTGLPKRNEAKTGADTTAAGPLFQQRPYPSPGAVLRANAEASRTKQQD
UniProt Q96BP3: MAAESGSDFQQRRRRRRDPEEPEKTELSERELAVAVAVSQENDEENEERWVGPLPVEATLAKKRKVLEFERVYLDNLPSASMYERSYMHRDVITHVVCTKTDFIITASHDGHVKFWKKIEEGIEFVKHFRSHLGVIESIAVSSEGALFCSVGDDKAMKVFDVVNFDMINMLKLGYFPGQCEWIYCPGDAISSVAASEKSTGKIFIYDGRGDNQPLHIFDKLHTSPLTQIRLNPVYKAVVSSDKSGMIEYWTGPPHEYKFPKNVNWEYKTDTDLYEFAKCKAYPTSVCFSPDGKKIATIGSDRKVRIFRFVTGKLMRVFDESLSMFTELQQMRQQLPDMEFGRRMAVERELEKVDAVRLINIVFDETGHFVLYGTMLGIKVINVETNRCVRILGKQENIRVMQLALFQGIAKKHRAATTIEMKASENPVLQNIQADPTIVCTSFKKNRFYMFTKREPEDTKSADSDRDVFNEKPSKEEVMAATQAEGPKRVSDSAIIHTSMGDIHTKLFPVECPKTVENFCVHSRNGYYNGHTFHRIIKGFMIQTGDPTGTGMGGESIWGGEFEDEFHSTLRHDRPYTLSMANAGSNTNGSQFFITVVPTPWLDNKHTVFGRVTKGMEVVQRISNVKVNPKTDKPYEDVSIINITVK
UniProt Q9UNN8: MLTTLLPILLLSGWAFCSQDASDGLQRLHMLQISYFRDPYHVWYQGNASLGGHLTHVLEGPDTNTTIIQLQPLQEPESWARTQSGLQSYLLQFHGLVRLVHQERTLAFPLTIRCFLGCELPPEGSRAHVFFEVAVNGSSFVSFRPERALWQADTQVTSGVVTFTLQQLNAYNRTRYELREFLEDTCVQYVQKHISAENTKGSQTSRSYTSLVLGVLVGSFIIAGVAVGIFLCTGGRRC
UniProt Q05655: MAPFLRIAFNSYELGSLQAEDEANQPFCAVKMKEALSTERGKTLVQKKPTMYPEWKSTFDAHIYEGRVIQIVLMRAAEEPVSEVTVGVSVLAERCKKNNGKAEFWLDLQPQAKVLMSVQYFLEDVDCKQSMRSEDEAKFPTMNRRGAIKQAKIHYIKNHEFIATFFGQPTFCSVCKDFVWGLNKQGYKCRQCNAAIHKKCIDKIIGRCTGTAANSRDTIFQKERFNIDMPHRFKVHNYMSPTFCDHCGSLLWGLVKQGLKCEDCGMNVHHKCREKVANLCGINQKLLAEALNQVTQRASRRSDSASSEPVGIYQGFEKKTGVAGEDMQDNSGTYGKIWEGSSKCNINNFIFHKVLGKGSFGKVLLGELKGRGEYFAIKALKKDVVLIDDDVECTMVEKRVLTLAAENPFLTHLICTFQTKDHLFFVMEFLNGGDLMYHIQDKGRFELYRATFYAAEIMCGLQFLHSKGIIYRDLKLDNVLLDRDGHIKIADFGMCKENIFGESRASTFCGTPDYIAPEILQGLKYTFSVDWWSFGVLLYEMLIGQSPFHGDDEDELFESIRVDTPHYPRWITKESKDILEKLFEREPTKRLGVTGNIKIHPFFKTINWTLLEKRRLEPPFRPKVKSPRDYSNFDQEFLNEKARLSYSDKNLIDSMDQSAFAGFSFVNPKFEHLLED
UniProt P30405: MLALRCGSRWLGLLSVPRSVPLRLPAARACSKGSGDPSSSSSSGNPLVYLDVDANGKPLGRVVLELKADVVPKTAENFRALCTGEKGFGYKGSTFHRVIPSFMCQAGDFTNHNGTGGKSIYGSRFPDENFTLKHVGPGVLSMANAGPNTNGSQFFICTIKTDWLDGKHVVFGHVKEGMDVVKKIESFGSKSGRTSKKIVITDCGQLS
UniProt Q92733: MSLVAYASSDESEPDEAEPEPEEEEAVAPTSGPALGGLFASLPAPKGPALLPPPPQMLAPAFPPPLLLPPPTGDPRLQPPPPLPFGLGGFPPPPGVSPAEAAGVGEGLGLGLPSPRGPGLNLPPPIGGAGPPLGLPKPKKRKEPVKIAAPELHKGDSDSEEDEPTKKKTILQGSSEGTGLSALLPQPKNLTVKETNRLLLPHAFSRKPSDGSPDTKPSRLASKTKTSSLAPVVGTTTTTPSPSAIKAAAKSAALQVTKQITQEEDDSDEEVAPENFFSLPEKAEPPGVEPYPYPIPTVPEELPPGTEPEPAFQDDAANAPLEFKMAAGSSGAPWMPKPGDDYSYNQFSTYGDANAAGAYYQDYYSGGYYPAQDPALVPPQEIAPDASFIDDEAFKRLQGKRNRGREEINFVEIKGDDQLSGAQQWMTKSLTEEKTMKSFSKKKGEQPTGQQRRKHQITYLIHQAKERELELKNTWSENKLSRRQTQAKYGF
UniProt Q9NR22, whole entry, looked up: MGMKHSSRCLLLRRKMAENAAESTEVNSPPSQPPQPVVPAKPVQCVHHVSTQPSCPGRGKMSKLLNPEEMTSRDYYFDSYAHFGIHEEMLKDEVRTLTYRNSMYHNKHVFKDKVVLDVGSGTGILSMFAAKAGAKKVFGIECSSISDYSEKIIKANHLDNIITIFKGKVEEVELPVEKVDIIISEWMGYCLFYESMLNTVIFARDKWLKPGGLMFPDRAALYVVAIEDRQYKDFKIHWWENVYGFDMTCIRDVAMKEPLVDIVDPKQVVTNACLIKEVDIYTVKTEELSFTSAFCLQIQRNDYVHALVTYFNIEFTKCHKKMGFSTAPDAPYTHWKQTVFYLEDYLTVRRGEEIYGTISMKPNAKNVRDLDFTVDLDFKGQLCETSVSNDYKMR
UniProt Q969Q6: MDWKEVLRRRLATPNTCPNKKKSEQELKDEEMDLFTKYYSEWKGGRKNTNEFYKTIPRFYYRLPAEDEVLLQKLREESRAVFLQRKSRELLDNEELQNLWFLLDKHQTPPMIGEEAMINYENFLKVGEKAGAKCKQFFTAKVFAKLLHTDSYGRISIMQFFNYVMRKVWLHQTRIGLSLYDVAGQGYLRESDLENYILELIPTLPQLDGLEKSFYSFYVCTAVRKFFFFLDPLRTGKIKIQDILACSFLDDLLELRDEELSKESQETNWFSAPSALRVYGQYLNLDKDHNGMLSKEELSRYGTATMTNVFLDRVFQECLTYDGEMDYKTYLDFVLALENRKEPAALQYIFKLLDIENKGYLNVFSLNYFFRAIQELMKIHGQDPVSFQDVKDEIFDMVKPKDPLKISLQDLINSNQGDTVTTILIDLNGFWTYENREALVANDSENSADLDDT
UniProt P49643: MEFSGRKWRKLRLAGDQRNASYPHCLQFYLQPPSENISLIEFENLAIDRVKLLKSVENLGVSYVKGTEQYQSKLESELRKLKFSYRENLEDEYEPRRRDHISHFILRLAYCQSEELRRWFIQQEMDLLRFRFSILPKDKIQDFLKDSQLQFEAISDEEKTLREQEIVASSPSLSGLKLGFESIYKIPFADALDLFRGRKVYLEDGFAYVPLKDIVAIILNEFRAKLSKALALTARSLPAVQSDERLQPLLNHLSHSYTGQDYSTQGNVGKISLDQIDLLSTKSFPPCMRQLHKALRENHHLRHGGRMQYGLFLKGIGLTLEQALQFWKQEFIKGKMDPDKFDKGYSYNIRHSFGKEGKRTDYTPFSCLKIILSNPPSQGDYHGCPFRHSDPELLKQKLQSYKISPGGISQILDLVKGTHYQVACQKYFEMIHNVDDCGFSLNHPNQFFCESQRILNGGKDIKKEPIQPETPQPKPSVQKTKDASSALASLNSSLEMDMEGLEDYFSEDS
UniProt P62140, whole entry, looked up: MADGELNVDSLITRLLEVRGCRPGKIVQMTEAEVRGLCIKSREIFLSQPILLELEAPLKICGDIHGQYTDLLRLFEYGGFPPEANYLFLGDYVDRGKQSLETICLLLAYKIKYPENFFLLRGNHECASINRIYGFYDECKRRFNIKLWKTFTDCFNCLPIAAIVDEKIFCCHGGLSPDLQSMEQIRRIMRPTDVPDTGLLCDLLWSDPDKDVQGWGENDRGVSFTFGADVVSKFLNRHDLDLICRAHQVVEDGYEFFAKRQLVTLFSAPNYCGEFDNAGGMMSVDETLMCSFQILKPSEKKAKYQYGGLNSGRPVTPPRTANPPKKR
UniProt O75569: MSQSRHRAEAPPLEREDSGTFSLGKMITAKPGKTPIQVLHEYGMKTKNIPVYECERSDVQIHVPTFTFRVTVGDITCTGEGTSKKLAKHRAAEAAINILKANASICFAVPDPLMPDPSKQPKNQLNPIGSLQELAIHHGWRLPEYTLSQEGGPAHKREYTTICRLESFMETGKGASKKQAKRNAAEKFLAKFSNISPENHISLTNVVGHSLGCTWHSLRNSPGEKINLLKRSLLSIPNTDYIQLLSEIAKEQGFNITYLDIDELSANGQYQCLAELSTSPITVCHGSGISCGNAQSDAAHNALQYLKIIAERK
UniProt Q9UMR5: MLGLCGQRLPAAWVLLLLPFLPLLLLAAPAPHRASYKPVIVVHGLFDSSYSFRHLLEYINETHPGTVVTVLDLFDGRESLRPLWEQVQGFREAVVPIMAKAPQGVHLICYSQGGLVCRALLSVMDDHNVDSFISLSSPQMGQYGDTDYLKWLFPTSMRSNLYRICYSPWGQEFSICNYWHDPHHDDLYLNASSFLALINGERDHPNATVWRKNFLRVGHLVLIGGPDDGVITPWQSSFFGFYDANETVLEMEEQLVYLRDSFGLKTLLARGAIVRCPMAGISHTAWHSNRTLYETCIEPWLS

Columns and labels:
Assay in all cases: log2 fold change, soluble protein after heating vs DMSO (PISA); higher = thermal stabilisation; K562 lysate, 10 uM; active = over 0.2 and 3.5 SD of the protein, either way, in both replicates (recomputed)
[1] = compound: C1=CC=C(C=C1)[C@H](COC2=CC3=C(C=C2)NC(=O)N3)NC(=O)C4=CC=CN(C4=O)CC5=CC(=C(C=C5)F)F
In short: (§1)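 To prepare the extract, K562 pellets were dounce-homogenised in PBS pH 7.4 with 1 mM MgCl2, giving crude material at 1 mg/mL protein. This was treated with 10 μM compound for 30 min, then heated in aliquots for 3 min over 48°C-58°C before pooling and addition of NP-40 to 0.5% at 4°C. Centrifugation at 21,000xg for 90 min left soluble protein in the supernatant, which TMTpro 16plex LC-MS/MS quantified with equalised channel sums. Results are log-two fold changes in thermal stability compared with solvent controls, from duplicates.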

[2] = compound: CC1=C(SC2=C1C(=N[C@H](C3=NN=C(N32)C)CC(=O)N)C4=CC=C(C=C4)Cl)C
In short: as §1

[3] = compound: CC1=C2C(=CC=C1)N=C(N(C2=O)C3=CC=CC=C3C)CN4C=NC5=C(N=CN=C54)N
In short: as §1

[4] = compound: Cc1sc2c(c1C)C(c1ccc(Cl)cc1)=N[C@@H](CC(=O)OC(C)(C)C)c1nnc(C)n1-2
In short: as §1

[5] = compound: c1ccc([C@@H]2C[C@H]2NC2CCNCC2)cc1
In short: as §1

Measured: log2 fold change

PRPF38B (UniProt Q5VTL8)
inactive: [1] 0.008 | [2] -0.008 | [3] 0.012 | [4] 0.002 | [5] 0.009

PPP1R7 (UniProt Q15435)
inactive: [1] 0.005 | [2] -0.008 | [3] 0.011 | [4] -0.018 | [5] 0.031

PPIL2 (UniProt Q13356)
inactive: [1] 0.036 | [2] 0.005 | [3] 0.029 | [4] 0.082 | [5] 0.011

PPP1R35 (UniProt Q8TAP8)
inactive: [1] 0.003 | [2] -0.016 | [3] -0.041 | [4] 0.059 | [5] -0.052

PQBP1 (UniProt O60828)
inactive: [1] 0.059 | [2] -0.031 | [3] -0.001 | [4] 0.02 | [5] -0.039

PPWD1 (UniProt Q96BP3)
inactive: [1] 0.006 | [2] 0.007 | [3] 0.011 | [4] 0 | [5] 0.002

Fetched one by one from the list above, 2 records:
PPWD1 (UniProt Q96BP3)
inactive: [1] 0.006 | [2] 0.007 | [3] 0.011 | [4] 0 | [5] 0.002

PRPF38B (UniProt Q5VTL8)
inactive: [1] 0.008 | [2] -0.008 | [3] 0.012 | [4] 0.002 | [5] 0.009

Remaining list, next part:

PRKAB1 (UniProt Q9Y478)
inactive: [1] -0.024 | [2] 0.051 | [3] -0.032 | [4] -0.026 | [5] -0.067

PROCR (UniProt Q9UNN8)
inactive: [1] -0.004 | [2] 0.009 | [3] 0.016 | [4] 0.05 | [5] -0.003

PPP2R5C isoform 5 (UniProt Q13362)
inactive: [1] -0.068 | [2] 0.011 | [3] -0.02 | [4] -0.024 | [5] 0.071

PRKCD (UniProt Q05655)
inactive: [1] 0.003 | [2] 0.022 | [3] 0.028 | [4] -0.003 | [5] 0.023

PRKAG1 (UniProt P54619)
inactive: [1] -0.048 | [2] 0.026 | [3] -0.017 | [4] -0.008 | [5] -0.085

PPIF (UniProt P30405)
inactive: [1] 0.008 | [2] 0.035 | [3] 0.001 | [4] -0.007 | [5] -0.11

PROSER1 (UniProt Q86XN7)
inactive: [1] -0.053 | [2] 0.141 | [3] 0.056 | [4] -0.003 | [5] 0.374

PRCC (UniProt Q92733)
inactive: [1] 0.022 | [2] -0.026 | [3] -0.037 | [4] 0 | [5] 0.012

PRKRIP1 (UniProt Q9H875)
inactive: [1] -0.013 | [2] 0.008 | [3] 0.005 | [4] -0.006 | [5] 0.016

PRMT8 (UniProt Q9NR22)
inactive: [1] -0.016 | [2] 0.031 | [3] 0.01 | [4] -0.041 | [5] -0.147

PPP2R3C (UniProt Q969Q6)
inactive: [1] -0.044 | [2] 0.006 | [3] 0.042 | [4] -0.052 | [5] 0.059

PRIM2 (UniProt P49643)
inactive: [1] 0.004 | [2] 0.026 | [3] 0.016 | [4] 0.009 | [5] 0.028

PPP1R9A isoform 3 (UniProt Q9ULJ8)
inactive: [1] 0.046 | [2] -0.006 | [3] 0.039 | [4] 0.026 | [5] -0.019

PPP1CA (UniProt P62136)
inactive: [1] -0.004 | [2] 0.02 | [3] 0.034 | [4] -0.028 | [5] 0.007

PPP1CB (UniProt P62140)
inactive: [1] -0.012 | [2] 0.042 | [3] -0.02 | [4] 0.002 | [5] 0.011

PRORP (UniProt O15091)
inactive: [1] -0.254 | [2] -0.202 | [3] 0 | [4] -0.035 | [5] 0.163

PRKRA (UniProt O75569)
inactive: [1] -0.002 | [2] 0.027 | [3] 0.031 | [4] 0.029 | [5] 0.036

PPT2 isoform 3 (UniProt Q9UMR5)
inactive: [1] 0.01 | [2] -0.03 | [3] -0.046 | [4] -0.048 | [5] -0.08
